PMC6303327

Chains of the proteins cited; added tags and fusions are not shown. A line that says so, or that is headed by a name, gives the form on record, which may keep a tag or linker.
ScRPA S178D (phosphomimetic) (Saccharomyces cerevisiae), one chain, as listed by the source S178D, chain 1 of 3: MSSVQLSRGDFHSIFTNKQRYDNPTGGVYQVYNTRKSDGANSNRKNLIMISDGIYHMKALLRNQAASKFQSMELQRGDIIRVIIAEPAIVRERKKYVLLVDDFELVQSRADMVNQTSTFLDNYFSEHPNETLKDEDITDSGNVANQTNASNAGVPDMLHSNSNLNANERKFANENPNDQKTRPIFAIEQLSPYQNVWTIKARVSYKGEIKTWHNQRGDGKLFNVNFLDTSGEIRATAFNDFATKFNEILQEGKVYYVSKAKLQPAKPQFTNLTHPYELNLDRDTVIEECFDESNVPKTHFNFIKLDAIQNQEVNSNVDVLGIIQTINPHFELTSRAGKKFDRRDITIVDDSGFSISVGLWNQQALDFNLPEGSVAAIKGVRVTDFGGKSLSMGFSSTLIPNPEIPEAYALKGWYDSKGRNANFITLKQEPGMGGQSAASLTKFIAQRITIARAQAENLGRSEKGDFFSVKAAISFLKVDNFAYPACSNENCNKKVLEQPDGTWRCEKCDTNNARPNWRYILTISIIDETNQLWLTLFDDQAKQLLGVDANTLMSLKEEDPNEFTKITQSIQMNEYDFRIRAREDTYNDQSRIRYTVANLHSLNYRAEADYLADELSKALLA
ScRPA (Rfa1-Rfa2-Rfa3 heterotrimer, wild type) (Saccharomyces cerevisiae), one chain, as listed by the source, chain 1 of 3: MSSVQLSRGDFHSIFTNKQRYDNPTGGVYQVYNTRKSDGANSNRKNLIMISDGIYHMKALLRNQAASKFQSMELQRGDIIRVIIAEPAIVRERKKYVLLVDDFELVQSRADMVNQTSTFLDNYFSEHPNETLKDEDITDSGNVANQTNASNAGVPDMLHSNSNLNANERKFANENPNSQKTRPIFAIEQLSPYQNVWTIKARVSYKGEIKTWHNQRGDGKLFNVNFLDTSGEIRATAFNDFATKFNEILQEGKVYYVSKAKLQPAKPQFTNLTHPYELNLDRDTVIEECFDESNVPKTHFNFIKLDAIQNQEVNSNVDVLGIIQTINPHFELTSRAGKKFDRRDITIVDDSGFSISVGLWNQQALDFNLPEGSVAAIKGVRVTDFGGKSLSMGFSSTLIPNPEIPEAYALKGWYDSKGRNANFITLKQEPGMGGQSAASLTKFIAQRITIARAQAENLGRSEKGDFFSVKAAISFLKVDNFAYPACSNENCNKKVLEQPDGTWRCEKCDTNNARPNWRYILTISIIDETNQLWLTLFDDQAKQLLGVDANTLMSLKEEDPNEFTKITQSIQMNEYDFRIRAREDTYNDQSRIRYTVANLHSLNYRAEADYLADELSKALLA

Columns and labels:
[1] = tested on: RPA S178D-DBD-A-Cy3 + RPA S178D-DBD-D-Cy5 S178D,T211 S178D,W101; experiment: stopped-flow FRET; settings: 40 nM each, FRET: reaction buffer not given, 10 nM DNA, recombinant protein, single-stranded DNA
[2] = tested on: ScRPA S178D (phosphomimetic) (Saccharomyces cerevisiae); experiment: FRET titration; settings: 10 nM DNA, quadratic fit, FRET: reaction buffer not given, recombinant protein, protein details: TEV-cleavable His6 on Rfa1, label: 5' Cy5, 3' Cy3, single-stranded DNA
[3] = tested on: ScRPA (Rfa1-Rfa2-Rfa3 heterotrimer, wild type) (Saccharomyces cerevisiae); experiment: FRET titration; settings: substrate assigned from source data header; FRET: reaction buffer not given, 10 nM DNA; recombinant protein; protein details: TEV-cleavable His6 on Rfa1; label: Cy5/Cy3 at 1 and 11 (from name); single-stranded DNA
[4] = tested on: ScRPA S178D (phosphomimetic) (Saccharomyces cerevisiae); experiment: cryo-EM; settings: dataset 2, merged into the Tri-C map; recombinant protein; protein details: TEV-cleavable His6 on Rfa1; single-stranded DNA
[5] = tested on: ScRPA S178D (phosphomimetic) (Saccharomyces cerevisiae); experiment: MST; settings: apparent EC50, Hill slope 1.7 ± 0.1; room temperature, 20 min; recombinant protein; protein details: TEV-cleavable His6 on Rfa1; label: 5' Cy5; single-stranded DNA

Sequence: TTTTTTTTTTTTTTTTTTTTTTTTTTTTTTTTTTTTTTTTTTTTTTTTTTTTTTTTTTTTTTTTTTTTTTTTTTTTTTTTTTTTTTTTTTTTTTTTTTTTTTTTTTTTTTTTTTTTTTTTTTTTTTTTTTTTTTTTTTTT [dT140]
- binding result ([1]; one-step fit): binds

Sequence: TTTTTTTTTTTTTTTTTTTTTTTTTTTTTT [dT30 (FRET)]
- binding result [2]: binds

Sequence: TTTTTTTTTTTTTTTTTTTTTTTTTTTTTT [dT30(1-11)]
- Kd [3]: 17.4 nM

Sequence: TTTTTTTTTTTTTTTTTTTTTTTTTTTTTTTTTTTTTTTTTTTTT [dT45]
- binding result ([1]; two RPA per DNA): binds

Sequence: TTTTTTTTTTTTTTTTTTTTTTTTTTTTTTTTTTTTTTTTTTTTTTTTTTTTTTTTTTTTTTTTTTTTTTTTTTTTTTTTTTTTTTTTTTTTTTTTT [dT97]
- binding result ([1]; kobs,1 rises with length): binds

Sequence: TTTTTTTTTTTTTTTTTTTTTTTTTTTTTTTTTTTTTTTTTTTTTTTTTTTTTTTTTTTTTTTTTTTTTTTTTTTTTTT [dT79]
- binding result [1]: binds

Sequence: TTTTTTTTTTTTTTTTTTTTTTTTTTTTTTTTTTTTTTTTTTTTTTTTTTTTTTTTTTTTTTTTTTTTTT [dT70]
- binding result [1]: binds

Sequence: TTTTTTTTTTTTTTTTTTTTTTTTTTTTTTTTTTTTTTTTTTTTTTTTTTTTTTTTTTTTTTTTTTTTTTTTTTTTTTTTTTTTTTTTTTTTTTTTTTTT [dT100 (cryo-EM, SEC-MALS)]
- binding result [4]: binds

Sequence: TTTTTTTTTTTTTTTTTTTTTTTTTTTTTTTTTTTTTTTTTTTTTTTTTTTTTTTTTTTTTTTTTTTTTTTTTTTTTTTTTTTTTTTTTTTTTTTTTTTT [dT100 (Cy5)]
- half-maximal binding [5]: 80 nM

Sequence: TTTTTTTTTTTTTTTTTTTTTTTTTTTTTTTTTTTTTTTTTTTTTTTTTTTTTTTTTTTT [dT60]
- binding result [1]: binds

For at least one entry, the source does not settle the construct or the ends of the probe. For some of these results: At least one verdict rests on a figure or table, not on a statement of the authors.
